Experimental data: PubChem BioAssay AID2685 (National Center for Advancing Translational Sciences (NCATS), 2010)
This is one part of the list. These are further read-outs of the screen, such as a control signal, another cell line or another target. No call is given for them. Most of these compounds were active or inconclusive in the main read-out, so they are no random draw. Words in brackets tell the shape of the fitted curve; partial curves, single points and poor fits give uncertain potencies.

Assay: qHTS Assay for Lipid Storage Modulators in Drosophila S3 Cells;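 on cell number change: cells counted by Cell Tracker Red CMTPX staining in the red channel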
Conditions: BODIPY lipid droplet fluorescence, 18-24 h; for cell number change: measured here: cell count max response, cells fed with added oleic acid
Outline: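 Drosophila S3 cells got compounds at several concentrations plus oleic acid (400 uM solution). Laser-scanning cytometry with 488 nm excitation read lipid droplets at 500-530 nm and cells at 575-640 nm. Percent activity was relative to 20 uM Triacsin C.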

[1] = measured here: cell number channel AC50, cells fed with added oleic acid
[2] = measured here: lipid fluorescence (Fed channel) AC50, cells fed with added oleic acid

| SMILES | AC50 [1] | AC50 [2] | cell number change |
| --- | --- | --- | --- |
| C=CCc1cc(C(=O)N2CCCCC2)ccc1O | 0.00517 µM [falling, full curve, poor fit] | 6.51 µM [falling, single point] | – |
| CCCc1ccc(-c2c(C)sc(N)c2C#N)cc1 | 14.6 µM [falling, partial curve] | 14.6 µM [falling, partial curve] | -71.3% |
| COc1ccc(C(CNC(=O)c2cccc(NS(=O)(=O)c3ccc(C)c(F)c3)c2)N(C)C)cc1 (stereo not drawn) | – | 5.8 µM [rising, partial curve] | – |
| N=c1sc2ccccc2n1-c1ccccc1 | – | 29.1 µM [falling, single point] | -25.2% |
| CCCN(CCC)C(C)C(=O)NCC1(c2ccccc2)CCCC1 (stereo not drawn) | – | 0.00651 µM [falling, full curve, poor fit] | -19.1% |
| C/C(=N\NC(=S)NCc1ccccc1)C1CCCCC1 | 0.058 µM [rising, full curve] | 6.51 µM [rising, partial curve, poor fit] | 56.3% |
| CCN(CC)CC(=O)c1c(N)n(Cc2ccccc2)c(=O)n(C)c1=O | 1.84 µM [rising, full curve, poor fit] | 29.1 µM [rising, single point] | 20.4% |
| Cc1ccc2c(c1)nnn2C1CCN(C(=O)c2cccs2)CC1 | 0.651 µM [rising, single point] | – | 16.3% |
| Cc1nc(NCCc2ccc(Cl)cc2)c2nnn(Cc3ccccc3)c2n1 | 1.3 µM [rising, full curve, poor fit] | 6.51 µM [rising, partial curve, poor fit] | 21.2% |
| Cc1ccc(C)c(NC(=O)CCC(=O)NN=C2CCCC2)c1 | – | 29.1 µM [rising, single point] | – |
| NNC(=O)c1cc2c(s1)CCCCCC2 | – | 29.1 µM [rising, single point] | 131% |
| Cn1nnnc1SCC(=O)Nc1cc(C(C)(C)C)nn1-c1ccccc1 | 0.13 µM [falling, full curve, poor fit] | – | 15.1% |
| CC(C)Oc1cccc(C(=O)NC(=S)NCc2cccnc2)c1 | – | 1.03 µM [falling, partial curve, poor fit] | -4.1% |
| NC(=O)N/N=C/c1cn(-c2ccccc2)nc1-c1cccs1 | 0.82 µM [falling, full curve, poor fit] | 18.4 µM [falling, partial curve] | -41.5% |
| COc1ccc(C2=NCN(c3ccc(C)cc3)C(=S)N2)cc1 | 16.4 µM [falling, single point] | 18.4 µM [falling, single point] | -83.2% |
| COc1ccccc1N(Cc1cc(=O)[nH]c2ccccc12)C(C)=O | – | 29.1 µM [rising, single point] | 12.6% |
| CCOc1cc(C(=S)N2CCOCC2)ccc1OS(=O)(=O)c1ccc(OC)cc1 | – | 6.51 µM [rising, single point] | -43.9% |
| O=C(NCc1cccs1)c1ccc(CS(=O)Cc2ccccc2Cl)o1 (stereo not drawn) | – | 1.46 µM [rising, full curve] | -22.6% |
| CCCN1C(=O)/C(=C/c2ccc(C)s2)SC1=Nc1ccc(OC)cc1 | – | – | -8.65% |
| Brc1ccc(-c2nnc3sc(CN4CCN(c5ccccc5)CC4)cn23)cc1 | – | 0.0231 µM [rising, full curve, poor fit] | 8.28% |
| COc1cc(OC)c(OC)cc1CNC(=O)c1ccc(COc2ccccc2)cc1 | – | 6.51 µM [rising, single point] | 10.1% |

Part of the list above, as labelled records:
C/C(=N\NC(=S)NCc1ccccc1)C1CCCCC1
  AC50 [1]: 0.058 µM [rising, full curve]; AC50 [2]: 6.51 µM [rising, partial curve, poor fit]; cell number change: 56.3%
COc1cc(OC)c(OC)cc1CNC(=O)c1ccc(COc2ccccc2)cc1
  AC50 [2]: 6.51 µM [rising, single point]; cell number change: 10.1%

A draw from above in order of number of heavy atoms, smallest number first.

| SMILES | AC50 [1] | AC50 [2] | cell number change |
| --- | --- | --- | --- |
| Cc1ccc2c(c1)nnn2C1CCN(C(=O)c2cccs2)CC1 | 0.651 µM [rising, single point] | – | 16.3% |
| COc1ccccc1N(Cc1cc(=O)[nH]c2ccccc12)C(C)=O | – | 29.1 µM [rising, single point] | 12.6% |
| O=C(NCc1cccs1)c1ccc(CS(=O)Cc2ccccc2Cl)o1 (stereo not drawn) | – | 1.46 µM [rising, full curve] | -22.6% |

Next compounds follow.

| SMILES | AC50 [1] | AC50 [2] | cell number change |
| --- | --- | --- | --- |
| Cc1ccc(NC(=O)CCS(=O)(=O)c2ccc3c(c2)NC(=O)C(C)S3)cc1Cl (stereo not drawn) | – | 2.31 µM [rising, partial curve] | 26.3% |
| CC(C)n1nc(C(=O)NCCc2ccc(S(N)(=O)=O)cc2)c2ccccc2c1=O | – | – | 4.79% |
| COc1ccccc1C1NC(=O)NC(C)=C1C(C)=O (stereo not drawn) | – | 29.1 µM [falling, single point] | – |
| O=C(COC(=O)Cc1ccc(Cl)cc1)NCc1ccc2c(c1)OCO2 | – | 0.651 µM [falling, single point] | – |
| O=C(NC1CCN(Cc2ccccc2)C1)c1cc(S(=O)(=O)N2CCOCC2)ccc1Cl (stereo not drawn) | – | 29.1 µM [falling, single point] | -25.3% |
| CCOC(=O)c1c(C)[nH]c(C)c1S(=O)(=O)N(C)CC(=O)NCc1cccc(C)c1 | – | – | -4.01% |
| CC(=O)Nc1ccccc1OCC(=O)NC1CCCCC1C (stereo not drawn) | – | 0.103 µM [falling, full curve, poor fit] | 16.3% |
| CCOc1ccc(N2C(=O)C3ON(c4ccccc4)C(c4cccs4)C3C2=O)cc1 (stereo not drawn) | – | 0.164 µM [rising, full curve, poor fit] | – |
| CN(C)c1ccc(NC(=O)c2ccc(Cn3cc([N+](=O)[O-])cn3)cc2)cc1 | – | 0.517 µM [rising, single point] | – |
| Cc1cc(C)n(-c2nc3c(c(=O)n(C)c(=O)n3C)n2CCO)n1 | – | – | 39.7% |
| Cc1ccc(S(=O)(=O)N2CCN(C(=O)COC(=O)C3CCC3)CC2)cc1 | 25.9 µM [falling, partial curve] | – | -58.6% |
| Cc1ccc(C)c(N=Cc2cc3c(cc2[N+](=O)[O-])OCO3)c1 | 29.1 µM [falling, single point] | – | -32.9% |
| O=C(Nc1ccc(COc2ccccc2)cc1)Nc1cccc(C(=O)O)c1 | – | 18.4 µM [rising, partial curve] | 24.7% |
| CC(C)Oc1ccc(C(=O)NCCCNC(=O)c2ccccn2)cc1 | 0.116 µM [falling, full curve, poor fit] | 10.3 µM [rising, partial curve] | -22.9% |
| Cc1ccc(C2=N/C(=C\c3cccs3)C(=O)N2Nc2ccccc2)cc1 | – | 0.0651 µM [rising, full curve, poor fit] | 10.4% |
| CSc1nnnn1-c1ccc(C(=O)OCC(=O)N2CCOCC2)cc1 | – | 5.8 µM [falling, single point] | 17.7% |
| CN(C)c1ccc(NC(=O)COC(=O)c2cc(Cl)ccc2[N+](=O)[O-])cc1 | 7.31 µM [rising, partial curve, poor fit] | – | 10.7% |
| COc1cc(C(=O)Nc2cccc(C)c2C)ccc1OCC(=O)N1CCOCC1 | – | 4.11 µM [rising, full curve, poor fit] | -3.76% |
| CC1Oc2ccccc2N(CC(=O)N2CCc3ccccc32)C1=O (stereo not drawn) | 18.4 µM [rising, single point] | 5.17 µM [rising, single point] | 66.5% |
| O=C(CC1(O)C(=O)N(CN2CCOCC2)c2ccccc21)c1ccccc1 (stereo not drawn) | 20.6 µM [falling, single point] | – | -63.5% |
| CCn1c(=O)cc(OCC(=O)N2CCN(c3cccc(C(F)(F)F)c3)CC2)c2ccccc21 | – | – | -13.7% |

| SMILES | AC50 [1] | AC50 [2] | cell number change |
| --- | --- | --- | --- |
| CC(C)Oc1ccc(C(=O)N/N=C/c2ccc(-c3ccc(S(=O)(=O)Nc4ncccn4)cc3)o2)cc1 | 32.6 µM [falling, single point] | 29.1 µM [falling, partial curve] | -77.1% |
| CC(C)CN(C(=O)COC(=O)CCc1c[nH]c2ccccc12)c1c(N)n(Cc2ccccc2)c(=O)[nH]c1=O | – | – | 18.9% |
| COc1cc(NC(=O)COC(=O)CC(NC(C)=O)c2ccccc2)cc(OC)c1 (stereo not drawn) | – | – | -5.71% |
| O=C(NCCNc1ccc(Cl)cc1[N+](=O)[O-])c1ccccc1F | – | 13 µM [falling, partial curve, poor fit] | -24.9% |
| CCOc1cc(N2CCOCC2)c(OCC)cc1NC(=O)CSc1ncccn1 | – | 4.11 µM [rising, partial curve, poor fit] | – |
| Cc1cc(C)nc(NC(=O)c2cccc(Cl)c2)n1 | – | 0.92 µM [rising, full curve, poor fit] | 0.183% |
| CCCSCCCNC(=O)c1cc2c(s1)CS(=O)(=O)C2 | 6.51 µM [rising, partial curve] | – | 46.2% |
| CON/C=C(\C=Nc1ccc(F)cc1)c1ncc(C(F)(F)F)cc1Cl | 0.103 µM [falling, full curve, poor fit] | – | – |
| O=C(OCC1COc2ccccc2O1)c1c(F)cccc1F (stereo not drawn) | – | – | -0.908% |
| O=C(CSc1ccc(-c2ccco2)nn1)Nc1cccc(F)c1 | – | 14.6 µM [falling, partial curve, poor fit] | -19.1% |
| O[C@@H]1C2CCCC1[C@]1(O)CCCCC1C2 (stereo partly drawn) | – | – | 25.6% |
| Cc1ccc(C(=O)OCC(=O)Nc2ccc(N3CCOCC3)cc2)cc1 | 2.06 µM [falling, full curve, poor fit] | – | -32.9% |
| Cc1ccccc1NC(=O)c1nn(C)c2c1CS(=O)(=O)c1ccccc1-2 | – | – | -16.9% |
| Cc1ccccc1C1NC(c2ccccc2C)C(C)C(=O)C1C (stereo not drawn) | – | 18.4 µM [falling, single point] | 6.97% |
| COc1ccc(S(=O)(=O)Nc2ccc3c(c2)N(C(C)=O)CCC3)cc1 | 20.6 µM [rising, partial curve] | – | 80.8% |
| Cc1ccc(-c2nc(C)c(C(=O)O)s2)cc1 | – | 20.6 µM [rising, single point] | 25.3% |
| CCc1ccccc1NC(=O)CSc1nnc([C@@H]2CCCN2C(=O)OC(C)(C)C)o1 | – | 9.2 µM [rising, partial curve] | -0.895% |
| Cc1nc2ccccc2c2oc(C(=O)NCCCN3CCCC(C)C3)cc12 (stereo not drawn) | – | 20.6 µM [rising, single point] | 9.55% |
| CCCCSc1nnc(-c2ccc(NC(=O)CC)cc2)n1C | – | 0.00411 µM [falling, full curve, poor fit] | -18.8% |
